Paper PMC6072111
These are yes or no findings as the source states them, for the method shown. Binding seen in cells or lysates may run through a third protein. These calls come from enrichment with a bait or labelling near it, and not all partners need be listed. Sequences can lack the tags named with a protein.

By UniProt entry, the sequences of proteins in these tests, tags left out. Where a name states a change or a piece, a line headed by the entry shows the natural chain unless it says otherwise.
UniProt Q9NA28: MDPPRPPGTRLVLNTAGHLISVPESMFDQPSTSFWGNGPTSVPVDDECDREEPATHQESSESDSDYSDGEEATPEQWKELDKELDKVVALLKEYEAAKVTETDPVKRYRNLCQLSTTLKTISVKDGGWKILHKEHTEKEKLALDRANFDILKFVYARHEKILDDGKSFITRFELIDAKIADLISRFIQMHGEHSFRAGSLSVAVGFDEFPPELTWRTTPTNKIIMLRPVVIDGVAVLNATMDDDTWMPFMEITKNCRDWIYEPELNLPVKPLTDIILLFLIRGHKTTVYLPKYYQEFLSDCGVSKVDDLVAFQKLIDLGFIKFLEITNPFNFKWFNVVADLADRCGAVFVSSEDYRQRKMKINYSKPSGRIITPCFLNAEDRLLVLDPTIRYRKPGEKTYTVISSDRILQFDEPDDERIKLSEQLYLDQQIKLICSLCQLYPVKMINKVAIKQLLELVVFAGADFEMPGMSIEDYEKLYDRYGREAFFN

Biological target: T1, MUT-16::GFP::3xFLAG (C. elegans) (UniProt O62011)
T1 sequence: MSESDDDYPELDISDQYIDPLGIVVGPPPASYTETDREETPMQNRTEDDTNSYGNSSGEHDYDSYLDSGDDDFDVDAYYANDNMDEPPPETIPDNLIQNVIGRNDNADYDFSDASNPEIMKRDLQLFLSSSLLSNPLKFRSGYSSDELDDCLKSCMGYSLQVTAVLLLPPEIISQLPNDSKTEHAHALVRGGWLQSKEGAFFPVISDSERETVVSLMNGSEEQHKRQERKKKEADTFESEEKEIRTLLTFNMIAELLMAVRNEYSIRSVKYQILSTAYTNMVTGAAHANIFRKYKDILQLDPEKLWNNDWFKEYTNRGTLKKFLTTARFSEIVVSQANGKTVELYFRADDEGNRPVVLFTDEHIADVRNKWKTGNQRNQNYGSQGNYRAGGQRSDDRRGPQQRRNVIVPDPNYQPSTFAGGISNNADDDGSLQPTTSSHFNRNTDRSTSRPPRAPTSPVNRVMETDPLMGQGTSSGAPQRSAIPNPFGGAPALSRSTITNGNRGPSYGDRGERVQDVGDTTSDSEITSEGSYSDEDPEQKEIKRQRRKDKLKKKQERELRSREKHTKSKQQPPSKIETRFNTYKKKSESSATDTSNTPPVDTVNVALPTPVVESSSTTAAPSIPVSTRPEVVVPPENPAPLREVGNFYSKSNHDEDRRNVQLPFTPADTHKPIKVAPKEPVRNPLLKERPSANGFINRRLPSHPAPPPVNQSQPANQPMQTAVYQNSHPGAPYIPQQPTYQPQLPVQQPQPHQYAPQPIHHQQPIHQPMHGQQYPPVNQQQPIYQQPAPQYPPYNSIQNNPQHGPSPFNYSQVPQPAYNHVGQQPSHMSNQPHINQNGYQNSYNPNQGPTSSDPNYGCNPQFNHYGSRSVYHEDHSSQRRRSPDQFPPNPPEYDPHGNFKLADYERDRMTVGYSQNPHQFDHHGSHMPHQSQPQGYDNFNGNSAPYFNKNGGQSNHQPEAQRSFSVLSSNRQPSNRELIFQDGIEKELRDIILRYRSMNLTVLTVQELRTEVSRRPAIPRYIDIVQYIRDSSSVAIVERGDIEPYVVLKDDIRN
Test: affinity purification with mass spectrometry; FLAG or GFP immunoprecipitation (anti-GFP and anti-FLAG affinity matrix) from wild-type and MUT-16::GFP::FLAG lysates, ~500,000 synchronized adult C. elegans for each sample

- binding: binds
Substance: NYN-2 (from UniProt Q9NA28)
